Data taken from publication PMC8110579.
These are yes or no findings as the source states them, for the method shown. Binding seen in cells or lysates may run through a third protein. A result given as binding can be weak or reduced; the word gives no strength.

Chains of the proteins cited; added tags and fusions are not shown. Lines headed by an entry give the natural chain unless they say otherwise; changes in a name come on top.
UniProt Q8TDG2: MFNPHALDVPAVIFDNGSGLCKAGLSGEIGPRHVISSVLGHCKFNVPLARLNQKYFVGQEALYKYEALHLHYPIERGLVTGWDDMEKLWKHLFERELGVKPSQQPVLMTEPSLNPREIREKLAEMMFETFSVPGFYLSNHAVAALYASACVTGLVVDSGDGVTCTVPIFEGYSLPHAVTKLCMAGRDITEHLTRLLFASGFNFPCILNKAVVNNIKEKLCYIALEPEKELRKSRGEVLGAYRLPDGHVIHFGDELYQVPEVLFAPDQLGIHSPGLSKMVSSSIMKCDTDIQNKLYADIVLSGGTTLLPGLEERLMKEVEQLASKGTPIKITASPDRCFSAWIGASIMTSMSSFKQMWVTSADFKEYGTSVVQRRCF
UniProt P23258: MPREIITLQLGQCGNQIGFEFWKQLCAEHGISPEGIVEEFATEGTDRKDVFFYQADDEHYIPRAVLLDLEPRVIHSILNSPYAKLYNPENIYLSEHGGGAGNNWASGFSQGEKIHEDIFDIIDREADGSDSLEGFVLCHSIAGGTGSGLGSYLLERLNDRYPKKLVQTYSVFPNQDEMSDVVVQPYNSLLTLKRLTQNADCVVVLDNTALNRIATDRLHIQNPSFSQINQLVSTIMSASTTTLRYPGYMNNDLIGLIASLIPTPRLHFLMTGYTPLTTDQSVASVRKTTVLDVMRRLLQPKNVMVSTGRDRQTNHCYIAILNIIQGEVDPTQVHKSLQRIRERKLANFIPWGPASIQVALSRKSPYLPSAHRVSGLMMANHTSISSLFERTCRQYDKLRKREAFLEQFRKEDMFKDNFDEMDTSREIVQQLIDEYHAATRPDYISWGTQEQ

Tests used:
[1] = target: ARP-T1 (untagged, detected with ARP-T1 antibody) (human (endogenous in hTERT-RPE1)) (UniProt Q8TDG2); assay: proximity ligation; proximity ligation assays (Supplementary Fig. 1f, g); cells and antibodies not told in the text shown
[2] = target: Actin-Related Protein-Testis1 (ARP-T1), wild type, tagged with DDK (human) (UniProt Q8TDG2); assay: co-IP; ARP-T1-DDK from transduced HeLa (Fig. 3a) and hTERT-RPE1 (Fig. 3b) cells precipitated with anti-FLAG M2 affinity gel overnight at 4 °C and 1 h at RT, five washes with TBS; immunoblot with antisera to the co-precipitated proteins

binding [1]: binds
binding [2]: binds
Substance: gamma-tubulin (from UniProt P23258)
